Experimental data: patent US20100022766A1, “BIOSYNTHETIC GENE CLUSTER FOR THE PRODUCTION OF A COMPLEX POLYKETIDE” (WYETH, priority 2008, published 2010)
For at least one compound, name, drawing or mass did not settle the structure.

System: mesencephalic dopanergic neuron cultures
Assay: high-affinity 3H-DA uptake in ventral mesencephalic cultures, with or without MPP+ exposure
Format: cell-based, rat
Procedure: Ventral mesencephalic cultures were prepared from E15 rat embryos and maintained for […] before experimentation according to the method of Pong et al., J Neurochem.
Cultures were then exposed to 10 μM 1-methyl-4-phenylpyridinium (MPP+) for 1 hr, in the presence of drug. After the 1 hr exposure, media was changed 3×, and fresh drug was added for an additional 24 hr or 48 hr.

SMILES: C=CC[C@@H]1/C=C(\C)C[C@H](C)C[C@H](OC)[C@H]2O[C@@](O)(C(=O)C(=O)N3CCCC[C@H]3C(=O)O[C@H](/C(C)=C/[C@@H]3CC[C@@H](O)[C@H](OC)C3)[C@H](C)[C@@H](O)CC1=O)[C@H](C)C[C@@H]2OC [FK506, reference compound]
- DA uptake (normal cultures, no MPP+): enhanced DA uptake
- protection against MPP toxicity (pre-treatment 1 hr or 24 hr, then MPP+ for 1 hr, recovery 24 hr or 48 hr, 3H-DA uptake readout): partial, but significant protection
